Reference: PubChem BioAssay (NCATS)
The shares of active, inactive and inconclusive entries below differ from those in the screen. A potency beside an inconclusive call is a rough fit, not a confirmed value. Active and inactive are the calls of the source. Calls follow the shape of the dose curve; as a rule, active = well fitted curve in the direction sought with a large enough effect; inconclusive = small, poorly fitted or top-dose-only effect, or another doubt; inactive = no such curve, though single readings can be large; an effect the other way counts as inactive or inconclusive.

Experiments:
[1] = Quantitative High-Throughput drug screen in 47 multiple myeloma cell lines against the NCATS MIPE library collection: JIM1_ECACC cell viability assay (AID 1918964); conditions: JIM1 myeloma viability, CellTiter-Glo ATP luminescence, 48 h; viability (% of DMSO): at 45.8 µM (top of the series)
Summary of the method: (§1)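 Myeloma cells (500 per well) were exposed to MIPE 4.0 compounds by pin transfer and incubated 48 hours at 37C, 5% CO2. Viability was read as ATP by CellTiter-Glo luminescence, normalised to DMSO (100%) and media-only (0%) wells.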

[2] = Quantitative High-Throughput drug screen in 47 multiple myeloma cell lines against the NCATS MIPE library collection: JJN3_DSMZ cell viability assay (AID 1918966; also: nearly all actives have a fitted effect of over 50% in size); conditions: JJN3 myeloma cells viability, CellTiter-Glo ATP, 48 h; viability, % of DMSO: at 45.8 µM (top of the series)
Summary of the method: as §1

[3] = Quantitative High-Throughput drug screen in 47 multiple myeloma cell lines against the NCATS MIPE library collection: Karpas25_ECACC cell viability assay (AID 1918968; also: nearly all actives have a fitted effect of over 35% in size); conditions: Karpas25 myeloma viability, CellTiter-Glo ATP, 48 h; viability (% of control): at 45.8 µM (top of the series)
Summary of the method: as §1

[4] = Quantitative High-Throughput drug screen in 47 multiple myeloma cell lines against the NCATS MIPE library collection: KMS12BM_JCRB cell viability assay (AID 1918971); also: nearly all actives have a fitted effect of over 35% in size
Summary of the method: as §1

[5] = Quantitative High-Throughput drug screen in 47 multiple myeloma cell lines against the NCATS MIPE library collection: KMS20_JCRB cell viability assay (AID 1918973); conditions: CellTiter-Glo ATP, 48 h; viability (% of DMSO): at 45.8 µM (top of the series); also: nearly all actives have a fitted effect of over 45% in size
Summary of the method: as §1

[6] = Quantitative High-Throughput drug screen in 47 multiple myeloma cell lines against the NCATS MIPE library collection: KMS21BM_JCRB cell viability assay (AID 1918974); conditions: ATP luminescence, 48 h; viability: at 45.8 µM (top of the series) unless noted
Summary of the method: as §1

[7] = Quantitative High-Throughput drug screen in 47 multiple myeloma cell lines against the NCATS MIPE library collection: KMS26_JCRB cell viability assay (AID 1918975); conditions: KMS26 myeloma cells viability, CellTiter-Glo ATP, 48 h; viability (% of DMSO): at 45.8 µM (top of the series); also: nearly all actives have a fitted effect of over 45% in size
Summary of the method: as §1

[8] = Quantitative High-Throughput drug screen in 47 multiple myeloma cell lines against the NCATS MIPE library collection: MMM1_PLB cell viability assay (AID 1918976); also: nearly all actives have a fitted effect of over 35% in size
Summary of the method: (§2)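 500 cells/well; MIPE 4.0 drugs pin-transferred; 48 h, 37C, 5% CO2. CellTiter-Glo, 5 min RT, luminescence. Controls: DMSO 100%, media 0%.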

[9] = Quantitative High-Throughput drug screen in 47 multiple myeloma cell lines against the NCATS MIPE library collection: NCIH929_DSMZ cell viability assay (AID 1918978); also: nearly all actives have a fitted effect of over 35% in size
Summary of the method: as §2

[10] = Quantitative High-Throughput drug screen in 47 multiple myeloma cell lines against the NCATS MIPE library collection: MM1S_ATCC cell viability assay (AID 1918980); also: nearly all actives have a fitted effect of over 45% in size
Summary of the method: as §2

[11] = Quantitative High-Throughput drug screen in 47 multiple myeloma cell lines against the NCATS MIPE library collection: MM1R_ATCC cell viability assay (AID 1918981); also: nearly all actives have a fitted effect of over 35% in size
Summary of the method: as §2

[12] = Quantitative High-Throughput drug screen in 47 multiple myeloma cell lines against the NCATS MIPE library collection: LP1_DSMZ cell viability assay (AID 1918982); also: nearly all actives have a fitted effect of over 35% in size
Summary of the method: as §2

[13] = Quantitative High-Throughput drug screen in 47 multiple myeloma cell lines against the NCATS MIPE library collection: KMS28PE_JCRB cell viability assay (AID 1918983); also: nearly all actives have a fitted effect of over 35% in size
Summary of the method: as §2

[14] = Quantitative High-Throughput drug screen in 47 multiple myeloma cell lines against the NCATS MIPE library collection: KMS12PE_JCRB cell viability assay (AID 1918972); conditions: KMS12PE myeloma viability, CellTiter-Glo ATP, 48 h; viability: at 45.8 µM (top of the series); also: nearly all actives have a fitted effect of over 30% in size
Summary of the method: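 CellTiter-Glo luminescence (ATP) after 48 h compound exposure, 37C/5% CO2; 500 cells/well; MIPE 4.0 approved/investigational drugs pinned in; DMSO = 100%, media only = 0% viability.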

[15] = Quantitative High-Throughput drug screen in 47 multiple myeloma cell lines against the NCATS MIPE library collection: MOLP8_DSMZ cell viability assay (AID 1918977); conditions: MOLP8 myeloma viability, CellTiter-Glo ATP luminescence, 48 h; viability (% of control): at 45.8 µM (top of the series); also: nearly all actives have a fitted effect of over 45% in size
Summary of the method: as §2

[16] = Quantitative High-Throughput drug screen in 47 multiple myeloma cell lines against the NCATS MIPE library collection: OCIMY1_PLB cell viability assay (AID 1918979); also: nearly all actives have a fitted effect of over 35% in size
Summary of the method: as §2

[17] = Quantitative High-Throughput drug screen in 47 multiple myeloma cell lines against the NCATS MIPE library collection: KMS27_JCRB cell viability assay (AID 1918970); conditions: KMS27 myeloma cells, CellTiter-Glo ATP viability, 48 h; viability (% of DMSO): at 45.8 µM (top of the series); also: nearly all actives have a fitted effect of over 30% in size
Summary of the method: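 Viability inhibition screen, 48 h compound exposure, luminescent ATP read-out.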
Potency is read from the fitted curve at half-maximal effect.

## COc1ccccc1N1CCN(CCN(C(=O)C2CCCCC2)c2ccccn2)CC1
[1]
  Potency: inconclusive: 0.0017 µM [rising, full curve, poor fit]
[2]
  Potency: inconclusive: 20.9 µM [cytotoxic, single point]
[3]
  Potency: inactive
[4]
  Potency: inactive
[5]
  Potency: active: 5.26 µM
[6]
  Potency: inconclusive: 0.296 µM [cytotoxic, full curve, poor fit]
[7]
  Potency: inactive
[8]
  Potency: inconclusive: 0.0059 µM [rising, full curve]
[9]
  Potency: active: 8.33 µM
[10]
  Potency: inconclusive: 10.5 µM [cytotoxic, full curve, poor fit]
[11]
  Potency: inconclusive: 16.6 µM [cytotoxic, partial curve, poor fit]
[12]
  Potency: inactive
[13]
  Potency: inconclusive: 0.0019 µM [rising, full curve]

## O=C(CO)N1CCC(c2[nH]nc(-c3ccc(Cl)cc3)c2-c2ccncn2)CC1
[1]
  Potency: inactive
[2]
  Potency: active: 1.66 µM
[3]
  Potency: inactive
[14]
  Potency: inactive
[5]
  Potency: inconclusive: 20.9 µM [cytotoxic, partial curve, poor fit]
[6]
  Potency: inconclusive: 37.2 µM [rising, partial curve, poor fit]
[12]
  Potency: inactive

## CCN(CC)CCCC(C)Nc1nc(C)cc(Nc2ccc3nc(C)cc(N)c3c2)n1 (stereo not given)
[1]
  Potency: inconclusive: 0.0264 µM [rising, full curve, poor fit]
[2]
  Potency: inconclusive: 23.5 µM [cytotoxic, single point]
[3]
  Potency: inconclusive: 16.6 µM [cytotoxic, partial curve]
[4]
  Potency: inconclusive: 29.6 µM [cytotoxic, single point]
[14]
  Potency: inconclusive: 18.7 µM [cytotoxic, partial curve, poor fit]
[5]
  Potency: inconclusive: 59 µM [cytotoxic, partial curve, poor fit]
[6]
  Potency: inconclusive: 5.9 µM [cytotoxic, partial curve, poor fit]
[7]
  Potency: inconclusive: 33.2 µM [cytotoxic, partial curve, poor fit]
[8]
  Potency: inconclusive: 0.0042 µM [rising, full curve, poor fit]
[15]
  Potency: inconclusive: 37.2 µM [cytotoxic, partial curve, poor fit]
[16]
  Potency: inconclusive: 0.0132 µM [rising, full curve, poor fit]
[10]
  Potency: inconclusive: 20.9 µM [cytotoxic, partial curve, poor fit]
[11]
  Potency: inconclusive: 20.9 µM [cytotoxic, single point]

## COc1cc(C)c(C=CC(C)=CC=CC(C)=CC(=O)O)c(C)c1C
[1]
  Potency: inactive
[2]
  Potency: inconclusive: 0.935 µM [cytotoxic, full curve, poor fit]
[3]
  Potency: inactive
[17]
  Potency: inconclusive: 9.35 µM [cytotoxic, single point]
[4]
  Potency: inconclusive: 10.5 µM [cytotoxic, partial curve, poor fit]
[14]
  Potency: inconclusive: 0.469 µM [cytotoxic, full curve, poor fit]
[5]
  Potency: inconclusive: 6.62 µM [cytotoxic, full curve, poor fit]
[6]
  Potency: inconclusive: 0.0833 µM [rising, full curve]
[8]
  Potency: inconclusive: 10.5 µM [cytotoxic, partial curve, poor fit]
[10]
  Potency: inactive
[12]
  Potency: inactive
[13]
  Potency: inactive

## CN(C)CCc1c[nH]c2ccc(Cn3cncn3)cc12
[1]
  Potency: inconclusive: 37.2 µM [cytotoxic, single point]
[2]
  Potency: inconclusive: 0.935 µM [cytotoxic, full curve, poor fit]
[4]
  Potency: inactive
[14]
  Potency: inconclusive: 23.5 µM [cytotoxic, single point]
[5]
  Potency: inconclusive: 0.0093 µM [rising, full curve, poor fit]
[7]
  Potency: inactive
[15]
  Potency: inconclusive: 1.05 µM [cytotoxic, full curve, poor fit]
[10]
  Potency: inconclusive: 0.0105 µM [rising, full curve, poor fit]
[11]
  Potency: inactive
[12]
  Potency: inactive
[13]
  Potency: inconclusive: 0.0042 µM [rising, full curve, poor fit]

## CC=C(C)C(=O)O[C@H]1C(C)=C[C@]23C(=O)[C@@H](C=C(CO)[C@@H](O)[C@]12O)[C@H]1[C@@H](C[C@H]3C)C1(C)C
[1]
  Potency: inconclusive: 4.18 µM [cytotoxic, partial curve, poor fit]
[2]
  Potency: inconclusive: 29.6 µM [cytotoxic, single point]
[3]
  Potency: inconclusive: 33.2 µM [cytotoxic, partial curve, poor fit]
[4]
  Potency: inconclusive: 13.2 µM [cytotoxic, partial curve, poor fit]
[5]
  Potency: inconclusive: 0.469 µM [cytotoxic, partial curve, poor fit]
[6]
  Potency: active: 8.33 µM
[7]
  Potency: inconclusive: 14.8 µM [cytotoxic, partial curve, poor fit]
[15]
  viability (% of control): inconclusive: 48.3% [cytotoxic]
[9]
  Potency: inconclusive: 26.4 µM [cytotoxic, single point]
[16]
  Potency: inconclusive: 23.5 µM [cytotoxic, partial curve]
[10]
  Potency: inconclusive: 0.0166 µM [cytotoxic, full curve, poor fit]
[12]
  Potency: inconclusive: 16.6 µM [cytotoxic, partial curve, poor fit]

## NC(=O)c1ncn([C@@H]2O[C@H](CO)[C@@H](O)[C@@H]2O)c1N
[1]
  Potency: inconclusive: 0.0166 µM [rising, full curve, poor fit]
[2]
  Potency: inactive
[4]
  Potency: inactive
[14]
  Potency: inconclusive: 0.0012 µM [cytotoxic, full curve, poor fit]
[5]
  Potency: inconclusive: 0.132 µM [cytotoxic, full curve, poor fit]
[6]
  Potency: inconclusive: 33.2 µM [rising, partial curve]
[7]
  Potency: inactive
[15]
  Potency: inconclusive: 0.001 µM [cytotoxic]
[16]
  Potency: inactive
[10]
  Potency: inactive
[12]
  Potency: inactive
[13]
  Potency: inactive

## COc1ccc(Nc2nccc(NCCO)n2)cc1
[1]
  Potency: inactive
[2]
  Potency: inconclusive: 0.0053 µM [rising, full curve, poor fit]
[4]
  Potency: inconclusive: 0.132 µM [rising, full curve, poor fit]
[14]
  Potency: inconclusive: 0.0021 µM [rising, full curve, poor fit]
[5]
  Potency: inconclusive: 0.526 µM [rising, full curve, poor fit]
[6]
  Potency: inconclusive: 13.2 µM [rising, partial curve, poor fit]
[7]
  Potency: inactive
[8]
  Potency: inconclusive: 0.0042 µM [rising, full curve, poor fit]
[15]
  Potency: inconclusive: 0.0023 µM [rising, full curve, poor fit]
[16]
  Potency: inconclusive: 0.0023 µM [rising, full curve, poor fit]
[10]
  Potency: inconclusive: 0.0037 µM [rising, full curve]
[11]
  Potency: inconclusive: 0.0019 µM [rising, full curve, poor fit]
[12]
  Potency: inconclusive: 0.0021 µM [rising, full curve]
[13]
  Potency: inconclusive: 0.0019 µM [rising, full curve]

## OCCN1CCN(CCCN2c3ccccc3Sc3ccc(C(F)(F)F)cc32)CC1
[1]
  Potency: active: 16.6 µM
[2]
  Potency: inconclusive: 18.7 µM [cytotoxic, partial curve, poor fit]
[17]
  Potency: inconclusive: 33.2 µM [cytotoxic, single point]
[4]
  Potency: inconclusive: 20.9 µM [cytotoxic, partial curve]
[5]
  Potency: active: 16.6 µM
[6]
  Potency: active: 14.8 µM
[7]
  Potency: active: 20.9 µM
[8]
  Potency: inconclusive: 26.4 µM [cytotoxic, single point]
[15]
  Potency: inconclusive: 29.6 µM [cytotoxic, single point]
[16]
  Potency: inconclusive: 37.2 µM [cytotoxic, single point]
[11]
  Potency: inconclusive: 37.2 µM [cytotoxic, single point]

## Cc1c(C)n(Cc2ccc(-c3ccccc3C(=O)O)cc2)c2ccc(C(=O)N[C@@H](C)c3ccc([N+](=O)[O-])cc3)cc12
[1]
  Potency: active: 0.0935 µM
[2]
  Potency: inconclusive: 20.9 µM [cytotoxic, partial curve, poor fit]
[4]
  Potency: inconclusive: 26.4 µM [cytotoxic, single point]
[14]
  Potency: active: 0.118 µM
[5]
  Potency: active: 11.8 µM
[6]
  Potency: active: 0.148 µM
[7]
  Potency: inconclusive: 37.2 µM [cytotoxic, single point]
[8]
  Potency: inconclusive: 0.0053 µM [rising, full curve]
[15]
  Potency: inconclusive: 29.6 µM [cytotoxic, partial curve, poor fit]
[16]
  Potency: inconclusive: 37.2 µM [cytotoxic, single point]
[11]
  Potency: inconclusive: 14.8 µM [cytotoxic, partial curve]
[12]
  Potency: inactive
[13]
  Potency: inactive

## CC(=O)O[C@]1(C(C)=O)CC[C@H]2[C@@H]3C=C(Cl)C4=CC(=O)[C@@H]5C[C@H]5[C@]4(C)[C@@H]3CC[C@@]21C
[1]
  Potency: inconclusive: 0.235 µM [cytotoxic, full curve, poor fit]
[2]
  Potency: inconclusive: 23.5 µM [cytotoxic, single point]
[4]
  Potency: inconclusive: 37.2 µM [cytotoxic, single point]
[14]
  Potency: inconclusive: 11.8 µM [cytotoxic, single point]
[5]
  Potency: inconclusive: 29.6 µM [cytotoxic, partial curve, poor fit]
[7]
  Potency: inconclusive: 0.469 µM [cytotoxic, full curve, poor fit]
[8]
  Potency: inconclusive: 26.4 µM [cytotoxic, single point]
[15]
  Potency: inconclusive: 14.8 µM [cytotoxic, partial curve, poor fit]
[16]
  Potency: inactive
[11]
  Potency: inconclusive: 33.2 µM [cytotoxic, single point]
[12]
  Potency: inconclusive: 37.2 µM [cytotoxic, single point]
[13]
  Potency: inconclusive: 33.2 µM [cytotoxic, single point]
